PubChem BioAssay AID652243 – Drosophila RNAi Screening Center, 2013
The deposit covers about 24,000 reagents; this is an unselected part of those that have a named target and a result. In the full data, 246 (1%) were called active. 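Plates not normalised; calls are printed but the firefly/Renilla ratio behind them is not deposited; fold cut for lowering reported inconsistently.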 Raw values are not corrected between plates. Names joined by + are all predicted targets of the reagent. Not stated in the record: the amount of reagent.

Screen: 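Fly genes required for human androgen receptor driven transcription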 (primary screen)
System: Drosophila S2R+ cells
Reagents: long dsRNA against Drosophila genes
Duration: 72 h (48 h, then 24 h hormone)
Conditions: synthetic androgen R1881 at 10 nM for 24 h
Measured: 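Per-well raw luminescence of the androgen-driven firefly reporter and of the Renilla control, two replicates each, without normalisation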
Direction: firefly reporter light: higher = more light from androgen-responsive reporter; Renilla control light: higher = more constitutive control signal (cell number, transfection)
Hit rule: 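Hit when the log firefly-to-Renilla ratio dropped or increased by a fixed fold versus the mean of GFP or LacZ controls across duplicate plates; lowering cut given as 1.5 and as 3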
Calls: active = hit: reporter lowered or raised; inactive = no hit

target	dsRNA	firefly reporter light, replicate 1	firefly reporter light, replicate 2	Renilla control light, replicate 1	Renilla control light, replicate 2	activity call
js (jiangshi)	DRSC15004	1.08e5	1.85e5	1.53e6	2.25e6	inactive
CG14147	DRSC10149	1.51e5	1.21e5	1.17e6	8.67e5	inactive
MFS1 (Major Facilitator Superfamily Transporter 1)	DRSC04115	3.36e5	3.14e5	1.78e6	1.47e6	inactive
MFS1 (Major Facilitator Superfamily Transporter 1)	DRSC27926	6.22e5	2.95e5	2.40e6	1.33e6	inactive
Trpgamma (Transient receptor potential cation channel gamma)	DRSC03626	1.26e5	1.37e5	2.05e6	2.14e6	inactive
cort (cortex)	DRSC02148	2.94e5	3.42e5	2.23e6	3.14e6	inactive
cort (cortex)	DRSC26829	2.67e5	3.52e5	5.19e5	4.55e5	inactive
Tgt (tRNA-guanine transglycosylase)	DRSC00672	4.42e5	7.72e5	1.66e6	1.63e6	inactive
CG1418	DRSC06447	5.25e5	2.99e5	1.80e6	1.50e6	inactive
CG1418	DRSC26354	3.67e5	3.81e5	3.88e5	6.22e5	inactive
HisT (Histamine transporter)	DRSC05051	28005	1.28e5	72672	1.89e5	inactive
HisT (Histamine transporter)	DRSC06405	6.84e5	9.41e5	1.01e6	1.25e6	inactive
RIC-3 (RIC3 acetylcholine receptor chaperone)	DRSC04243	1.01e6	8.06e5	2.49e6	2.23e6	inactive
RIC-3 (RIC3 acetylcholine receptor chaperone)	DRSC04543	2.46e5	3.63e5	1.96e6	2.27e6	inactive
Gr93a (Gustatory receptor 93a)	DRSC14593	3.26e5	3.90e5	5.20e6	3.96e6	inactive
CG2082	DRSC12125	84147	61770	4.35e5	3.35e5	inactive
CG2082	DRSC26456	4.30e5	4.43e5	6.88e5	7.20e5	inactive
Vps29 (Vacuolar protein sorting 29)	DRSC00666	7.66e5	8.17e5	1.35e6	1.07e6	inactive
CG34107	DRSC14554	98678	1.68e5	1.83e6	1.86e6	inactive
CG15525	DRSC15062	1.38e5	1.26e5	2.04e6	2.21e6	inactive
CG15525	DRSC27631	2.80e5	3.53e5	7.93e5	1.13e6	inactive
hry (hairy)	DRSC23249	6.55e5	8.16e5	1.18e6	1.55e6	inactive
hry (hairy)	DRSC30106	7.61e5	8.10e5	1.39e6	1.32e6	inactive
CG44002 + CR44003	DRSC25843	3.67e5	3.69e5	8.08e5	6.64e5	inactive
Taf11 (TBP-associated factor 11)	DRSC03448	1.47e5	54176	1.56e6	6.77e5	inactive
CG14006	DRSC02338	99672	1.29e5	7.35e5	9.55e5	inactive
CG14006	DRSC39288					inactive
PGRP-LD + Cralbp + Pmi	DRSC09743	1.26e5	1.12e5	2.24e6	1.61e6	inactive
Spn88Eb (Serpin 88Eb)	DRSC16093	65396	99040	5.73e5	1.00e6	inactive
Elba2 (Early boundary activity 2)	DRSC00731	7.68e5	6.48e5	3.54e6	2.06e6	inactive
Elba2 (Early boundary activity 2)	DRSC28543	6.10e5	7.76e5	8.79e5	1.30e6	inactive
Vha36-3 (Vacuolar H[+] ATPase 36kD subunit 3)	DRSC18615	5.04e5	4.76e5	4.13e6	3.27e6	inactive
Vha36-3 (Vacuolar H[+] ATPase 36kD subunit 3)	DRSC28636	4.34e5	4.43e5	1.30e6	1.47e6	inactive
Nemp (Nuclear envelope integral membrane protein)	DRSC20206	64842	77511	8.23e5	6.49e5	inactive
Nemp (Nuclear envelope integral membrane protein)	DRSC26963	3.97e5	3.86e5	6.47e5	5.35e5	inactive
Dolk (Dolichol kinase)	DRSC07143	1.23e5	82053	7.98e5	7.98e5	inactive
CG5290	DRSC10501	81386	22359	4.93e5	2.79e5	inactive
CG5290	DRSC30041	4.18e5	4.18e5	1.12e6	1.19e6	inactive
CG15617	DRSC06570	82093	1.39e5	1.22e6	1.22e6	inactive
CG15617	DRSC27918	7.34e5	4.37e5	1.37e6	6.75e5	inactive
CG9903	DRSC20213	3.67e5	3.15e5	2.47e6	2.43e6	inactive
CG30334	DRSC05345	1.30e5	91089	2.40e5	3.10e5	inactive
CG30334	DRSC24086	8.25e5	1.05e6	5.97e5	7.12e5	inactive
RpLP2 (Ribosomal protein LP2)	DRSC07539	45204	81683	5.06e5	5.06e5	inactive
RpLP2 (Ribosomal protein LP2)	DRSC28510	6.66e5	1.00e6	1.91e5	2.44e5	inactive
CG9451	DRSC11074	2.36e5	1.32e5	2.03e6	1.64e6	inactive
CG9451	DRSC26098	2.29e5	2.93e5	7.24e5	5.63e5	inactive
CG42402	DRSC38595	8.88e5	6.81e5	2.02e6	1.28e6	inactive
CG42402	DRSC38764	1.29e6	9.65e5	2.20e6	1.71e6	inactive
CG34276	DRSC15811	2.66e5	3.58e5	3.38e6	4.12e6	inactive
Osi6 (Osiris 6)	DRSC12128	37914	56202	8.91e5	9.88e5	inactive
Osi6 (Osiris 6)	DRSC25935	4.65e5	6.36e5	1.03e6	7.51e5	inactive
CG10459	DRSC05991	3.61e5	1.91e5	1.99e6	2.22e6	inactive
CG10459	DRSC22092	9.94e5	8.30e5	2.65e6	1.74e6	inactive
CG1946	DRSC06804	4.19e5	5.04e5	1.98e6	1.60e6	inactive
CG1946	DRSC28499	2.30e5	7.93e5	6.79e5	1.59e6	inactive
CG18131	DRSC22983	7.81e5	8.48e5	1.17e6	1.13e6	inactive
Tmtc1 (Transmembrane O-mannosyltransferase targeting cadherins 1)	DRSC00151	2.63e5	1.44e5	6.16e5	3.24e5	inactive
tnc (tenectin)	DRSC14647	1.76e5	1.65e5	2.50e6	2.20e6	inactive
tnc (tenectin)	DRSC25880	2.30e5	3.90e5	1.04e6	9.54e5	inactive
Xbp1 (X box binding protein-1)	DRSC04553	4.23e5	4.51e5	3.93e6	4.37e6	inactive
Xbp1 (X box binding protein-1)	DRSC21624	6.35e5	6.93e5	1.80e6	2.86e6	inactive
mi (minus)	DRSC04498	3.89e5	1.63e5	1.35e6	5.70e5	inactive
mi (minus)	DRSC29425	2.00e5	3.25e5	6.30e5	6.30e5	inactive
Ilp4 (Insulin-like peptide 4)	DRSC10701	2.01e5	2.50e5	2.43e6	2.93e6	inactive
Ilp4 (Insulin-like peptide 4)	DRSC26585	2.42e5	2.58e5	3.07e5	4.56e5	inactive
CG32533	DRSC19443	98685	1.04e5	4.05e5	4.93e5	inactive
CG32533	DRSC19553	1.08e5	1.05e5	4.05e5	2.95e5	inactive
CG32533	DRSC24560	6.06e5	6.68e5	9.50e5	6.78e5	inactive
CG32533	DRSC39093	3.97e5	3.34e5	1.59e6	1.35e6	active
CG4714	DRSC06883	7.20e5	6.85e5	1.87e6	2.06e6	inactive
Cpr49Ag (Cuticular protein 49Ag)	DRSC07203	4.58e5	3.33e5	2.45e6	2.42e6	inactive
Cpr49Ag (Cuticular protein 49Ag)	DRSC28612	4.51e5	3.52e5	1.72e6	1.62e6	inactive
TBC1d7 + mRpS24	DRSC14611	2.48e5	2.22e5	1.92e6	2.79e6	inactive

Records listed so far called active:
target	dsRNA	firefly reporter light, replicate 1	firefly reporter light, replicate 2	Renilla control light, replicate 1	Renilla control light, replicate 2	activity call
CG32533	DRSC39093	3.97e5	3.34e5	1.59e6	1.35e6	active
